Measured values from patent US20090264421A1 (priority 2007, published 2009).
At least one compound was matched to its structure with a doubt left.

Tested on: MM1S and MM1R myeloma cells
Assay: Cross-resistance in dexamethasone-sensitive and -resistant myeloma cell lines
Type: cell-based, human
Details: MM1R (MM1RL) versus MM1S

C[C@@H]1C[C@H]2[C@@H]3CCC4=CC(=O)C=C[C@]4(C)[C@@]3(F)[C@@H](O)C[C@]2(C)[C@@]1(O)C(=O)CO [dexamethasone, reference compound]
sensitivity of dexamethasone-resistant versus dexamethasone-sensitive cells: high level of resistance
